Two molecules from PMC6284747 can be followed below.

Assay [1] concerns the target T1, Atox1 purified protein (recombinant human Atox1) (human), O00244.
T1 chain: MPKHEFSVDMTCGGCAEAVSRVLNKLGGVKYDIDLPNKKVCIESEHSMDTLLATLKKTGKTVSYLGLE
Briefly: non-reducing Tricine SDS-PAGE with Western blot; Atox1 2.2x10^-5 M incubated in PBS with Cu(II) (ratio 1:1) and H2O2 (2.5-fold excess with respect to the cysteine residues of Atox1) for 20 hrs; 15% Tricine gel in non-reducing conditions, polyclonal anti-Atox1 blot; both purified. Conditions: remark: other sources report otherwise.

Assay [2] deals with T2, Atox1 (endogenous, SH-SY5Y neuroblastoma cells) (human (endogenous in SH-SY5Y)), O00244.
T2 chain: T1 chain
Briefly: SDS-PAGE with Western blot of cell lysates; SH-SY5Y lysates (RIPA buffer) after 48 hrs of treatment with phendione or cuproindione at IC50 concentration, or 50 uM BCS; polyclonal anti-Atox1 blot, bands at higher MW. Conditions: remark: other sources report otherwise. A general note: In western blotting, separated proteins are transferred to a membrane and probed.

Results are given in words; binding and its absence hold for the method and conditions named. Some results given as binding are weak or reduced against the parent protein; the word gives no strength.

B1: Atox1 purified protein (recombinant human Atox1), O00244 1-68 (protein)
chain: T1 chain
B1: the binding entry in assay [1] was “binds”.

B2: Atox1 (endogenous, SH-SY5Y neuroblastoma cells), O00244 1-68 (protein)
chain: T1 chain
On to B2, for which the binding result in assay [2] is recorded as “binds”.
